Laboratory results reported in PubChem BioAssay AID248 (DTP/NCI, 2004).
The list is a part of this screen's results and no random one: it is rich in T/C values a quarter to a half above the control, in often repeated tests (any T/C) and in doses without a T/C. Other doses and runs of a compound stand elsewhere. T/C: endpoint of the treated group in % of that of the vehicle group. Some entries give survivors of the animals treated and no T/C: the source holds a T/C of zero for them, seemingly a mark for toxic or unscored doses. Some survivor counts are full or nearly so, which does not show that the dose was tolerated: survival well below the control is almost never listed, so the zero probably covers shortened survival too. Counts of survivors are from the toxicity check (mostly the fifth day) where no day follows; animals may have died later. Schedule codes are those of the source, read here as Q, the interval in days (D) or hours (H), X, the number of doses. Some schedules carry Z or #; the key to these is not given. Some entries were tested several times; the values are given in rising order. For survival time, this PubChem deposit counts one and a half times the control or more as active, and values a quarter to a half above the control carry no call in these data; other NCI protocols may use other cut-offs.

Test system: L1210 leukemia ip in BDF1 mice, survival T/C
Assay: NCI In Vivo Anticancer Drug Screen. Data for tumor model L1210 Leukemia (intraperitoneal) in B6D2F1 (BDF1) mice
Conditions: T/C endpoint: mean survival time, higher T/C = longer survival
[1] = dose: 100.0 mg/kg/injection, schedule: Q04DX003 (ip), vehicle: Klucel (hydroxypropylcellulose) (HPC)
[2] = dose: 200.0 mg/kg/injection, schedule: Q04DX003 (ip), vehicle: Klucel (hydroxypropylcellulose) (HPC)
[3] = dose: 400.0 mg/kg/injection, schedule: Q04DX003 (ip), vehicle: Klucel (hydroxypropylcellulose) (HPC)
[4] = dose: 400.0 mg/kg/injection, schedule: Q01DX009 (ip), vehicle: Klucel (hydroxypropylcellulose) (HPC)
[5] = dose: 400.0 mg/kg/injection, schedule: Q04DX003 (ip), vehicle: saline
[6] = dose: 400.0 mg/kg/injection, schedule: Q01DX009 (ip), vehicle: saline
[7] = dose: 300.0 mg/kg/injection, schedule: Q01DX001 (ip), vehicle: saline
[8] = dose: 100.0 mg/kg/injection, schedule: Q04DX003 (ip), vehicle: saline with Tween-80
[9] = dose: 200.0 mg/kg/injection, schedule: Q04DX003 (ip), vehicle: saline with Tween-80
[10] = dose: 400.0 mg/kg/injection, schedule: Q04DX003 (ip), vehicle: saline with Tween-80
[11] = dose: 50.0 mg/kg/injection, schedule: Q04DX002 (ip), vehicle: Klucel (hydroxypropylcellulose) (HPC)
[12] = dose: 100.0 mg/kg/injection, schedule: Q04DX002 (ip), vehicle: Klucel (hydroxypropylcellulose) (HPC)
[13] = dose: 200.0 mg/kg/injection, schedule: Q04DX002 (ip), vehicle: Klucel (hydroxypropylcellulose) (HPC)
[14] = dose: 50.0 mg/kg/injection, schedule: Q04DX003 (ip), vehicle: saline

Question: What does the source list for `CCN(CC)c1ccc(NC(C)=O)cc1`?
Answer: survivor count (dose: 50.0 mg/kg/injection, schedule: Q04DX003 (ip), vehicle: Klucel (hydroxypropylcellulose) (HPC)): 3 of 6; survivor count [1]: 0 of 6; survivor count [2]: 0 of 6; survivor count [3]: 0 of 6

Question: With `CCCCCCCCCCCCCCCCCC(=O)Nc1ccc(OC(=O)NC)cc1` as the compound, how does the survivor count [4] read?
Answer: 6 of 6

Question: `CC(=O)OCC1(C[N+](C)(C)C)CCC1` was tested. Which survivor count [5] did it give?
Answer: 3 of 6

Question: How did the survivor count [6] turn out when `CCOC(CN)C(Cl)(Cl)Cl` (configuration not stated) was run?
Answer: 6 of 6

Question: With `CCN(CC)CCCNC(c1ccc(Cl)cc1)C(Cl)(Cl)Cl` (configuration not stated) as the compound, how does the survivor count (dose: 150.0 mg/kg/injection, schedule: Q01DX001 (ip), vehicle: saline) read?
Answer: 2 of 6

Question: What about the survivor count [7] of the same compound?
Answer: 0 of 6

Question: For `O=[N+]([O-])c1ccc(S(=O)CCCl)c([N+](=O)[O-])c1` (configuration not stated), which survivor count (dose: 50.0 mg/kg/injection, schedule: Q04DX003 (ip), vehicle: saline with Tween-80) is on record?
Answer: 5 of 6

Question: What about the survivor count [8] of the same compound?
Answer: 1 of 6 and 5 of 6

Question: What about the survivor count [9] of the same compound?
Answer: 0 of 6

Question: And the survivor count [10]?
Answer: 0 of 6

Question: With `C=COC(=O)NC(CCC(=O)OC)C(=O)O` (configuration not stated) as the compound, how does the survivor count (dose: 400.0 mg/kg/injection, schedule: Q01DX001 (ip), vehicle: saline) read?
Answer: 0 of 6

Question: How did the survivor count (dose: 50.0 mg/kg/injection, schedule: Q01DX001 (ip), vehicle: other) turn out when `OCC1OC2OC(c3ccccc3)(c3ccc(OCc4ccccc4)nc3OCc3ccccc3)OC2C1O` (configuration not stated) was run?
Answer: 6 of 6

Question: Which survivor count [8] does the source give for `CNC(C)c1ccc(C)cc1` (configuration not stated) here?
Answer: 3 of 6

Question: What about the survivor count [9] of the same compound?
Answer: 0 of 6

Question: And the survivor count [10]?
Answer: 0 of 6

Question: `N#CCc1[nH]cnc1C#N` was tested. Which T/C (dose: 200.0 mg/kg/injection, schedule: Q04DX003 (ip), vehicle: water) did it give?
Answer: 125 % of control

Question: Which survivor count [2] does the source give for `O=C(NC(CS)C(=O)O)OCc1ccccc1` (configuration not stated) here?
Answer: 2 of 6

Question: What about the survivor count [3] of the same compound?
Answer: 1 of 6

Question: With `CC1CC(NC(=S)N(C)C)CC(C)(C)C1` (configuration not stated) as the compound, how does the survivor count [4] read?
Answer: 0 of 6

Question: How did the survivor count (dose: 400.0 mg/kg/injection, schedule: Q01DX001 (ip), vehicle: carboxymethylcellulose (CMC)) turn out when `COc1cccc(C2N(Cc3ccc(N(CCCl)CCCl)cc3C)CCCN2Cc2ccc(N(CCCl)CCCl)cc2C)c1O` was run?
Answer: 2 of 4

Question: Which survivor count [2] does the source give for `Cc1ccc(N2C(=O)c3cc4ccccc4c(-c4ccccn4)c3C2=O)cc1` here?
Answer: 3 of 6

Question: What about the survivor count [3] of the same compound?
Answer: 0 of 6

Question: With `O=C(Nc1cccc(C2=NCCN2)c1)Nc1ccc(NC(=O)Nc2cccc(C3=NCCN3)c2)c(Cl)c1` as the compound, how does the T/C (dose: 2.0 mg/kg/injection, schedule: Q01DX Z (ip), vehicle: carboxymethylcellulose (CMC)) read?
Answer: 135 % of control

Question: And the T/C (dose: 4.0 mg/kg/injection, schedule: Q01DX Z (ip), vehicle: carboxymethylcellulose (CMC))?
Answer: 141 % of control

Question: And the T/C (dose: 8.0 mg/kg/injection, schedule: Q01DX Z (ip), vehicle: carboxymethylcellulose (CMC))?
Answer: 148 % of control

Question: And the T/C (dose: 62.0 mg/kg/injection, schedule: Q01DX Z (ip), vehicle: water)?
Answer: 130 % of control

Question: And the survivor count (dose: 125.0 mg/kg/injection, schedule: Q01DX Z (ip), vehicle: water)?
Answer: 4 of 6

Question: And the survivor count (dose: 250.0 mg/kg/injection, schedule: Q01DX Z (ip), vehicle: water)?
Answer: 0 of 6

Question: What about the survivor count (dose: 500.0 mg/kg/injection, schedule: Q01DX Z (ip), vehicle: water) of the same compound?
Answer: 0 of 6

Question: How did the survivor count (dose: 300.0 mg/kg/injection, schedule: Q01DX001 (ip), vehicle: carboxymethylcellulose (CMC)) turn out when `OCCNc1nc2ccccc2c2ccccc12` was run?
Answer: 2 of 6

Question: Which results are given for `Cc1cc[c]([Hg][I])cc1`?
Answer: survivor count (dose: 25.0 mg/kg/injection, schedule: Q01DX009 (ip), vehicle: Klucel (hydroxypropylcellulose) (HPC)): 4 of 6; survivor count [11]: 1 of 3; survivor count [12]: 0 of 3; survivor count [13]: 0 of 3; survivor count (dose: 400.0 mg/kg/injection, schedule: Q04DX002 (ip), vehicle: Klucel (hydroxypropylcellulose) (HPC)): 0 of 3

Question: Which results are given for `C[n+]1c(/C=C\C=C\N2CCCCC2)sc2ccccc21`?
Answer: survivor count (dose: 5.0 mg/kg/injection, schedule: Q04DX002 (ip), vehicle: saline with Tween-80): 1 of 3; survivor count (dose: 10.0 mg/kg/injection, schedule: Q04DX002 (ip), vehicle: saline with Tween-80): 0 of 3

Question: How did the survivor count [7] turn out when `N#CC(C#N)N=Nc1ccc(S(=O)(=O)Nc2ccccn2)cc1` was run?
Answer: 1 of 6

Question: Which survivor count (dose: 25.0 mg/kg/injection, schedule: Q01DX009 (ip), vehicle: saline) does the source give for `CC(C)=CCC(OC(=O)C=C(C)C)C1=CC(=O)c2c(O)ccc(O)c2C1=O` (configuration not stated) here?
Answer: 3 of 6

Question: And the survivor count [14]?
Answer: 5 of 10

Question: `NC(CO)C(O)c1ccc(N=Nc2ccc(O)cc2)cc1` (configuration not stated) was tested. Which survivor count [9] did it give?
Answer: 3 of 6

Question: What about the survivor count [10] of the same compound?
Answer: 0 of 6

Question: How did the survivor count [4] turn out when `CCCC(C)OP(=O)(OC(C)CC)OC(C)CC` (configuration not stated) was run?
Answer: 0 of 6

Question: How did the survivor count (dose: 200.0 mg/kg/injection, schedule: Q01DX009 (ip), vehicle: saline) turn out when `NCCSC(c1ccccc1)(c1ccccc1)c1ccccc1` was run?
Answer: 0 of 6

Question: And the survivor count (dose: 300.0 mg/kg/injection, schedule: Q01DX009 (ip), vehicle: saline)?
Answer: 0 of 6

Question: And the survivor count [6]?
Answer: 0 of 6

Question: What does the source list for `NC(=Nc1ccccc1)Nc1ccccc1`?
Answer: survivor count [11]: 0 of 3; survivor count (dose: 55.0 mg/kg/injection, schedule: Q01DX009 (ip), vehicle: saline): 0 of 3; survivor count (dose: 80.0 mg/kg/injection, schedule: Q01DX009 (ip), vehicle: saline): 0 of 3; survivor count [12]: 0 of 3; survivor count [13]: 0 of 3

Question: What does the source list for `CCCCC[CH2][Sn]([CH2]C)([CH2]C)[O]C(C)=O`?
Answer: survivor count (dose: 100.0 mg/kg/injection, schedule: Q01DX001 (ip), vehicle: saline with Tween-80): 0 of 6; survivor count (dose: 200.0 mg/kg/injection, schedule: Q01DX001 (ip), vehicle: saline with Tween-80): 0 of 6; survivor count (dose: 400.0 mg/kg/injection, schedule: Q01DX001 (ip), vehicle: saline with Tween-80): 1 of 6

Question: How did the survivor count (dose: 200.0 mg/kg/injection, schedule: Q01DX009 (ip), vehicle: acetone) turn out when `CCCCCCCCCOC(=O)NC1c2ccccc2Oc2ccccc21` was run?
Answer: 6 of 6

Question: What about the survivor count (dose: 400.0 mg/kg/injection, schedule: Q01DX009 (ip), vehicle: acetone) of the same compound?
Answer: 6 of 6

Question: With `CC[P+](CC)(CC)c1ccccc1` as the compound, how does the survivor count (dose: 50.0 mg/kg/injection, schedule: Q01DX009 (ip), vehicle: Klucel (hydroxypropylcellulose) (HPC)) read?
Answer: 0 of 6

Question: And the survivor count [14]?
Answer: 0 of 6

Question: What about the survivor count (dose: 100.0 mg/kg/injection, schedule: Q01DX009 (ip), vehicle: Klucel (hydroxypropylcellulose) (HPC)) of the same compound?
Answer: 0 of 6

Question: What about the survivor count (dose: 100.0 mg/kg/injection, schedule: Q04DX003 (ip), vehicle: saline) of the same compound?
Answer: 0 of 6

Question: What about the survivor count (dose: 200.0 mg/kg/injection, schedule: Q04DX003 (ip), vehicle: saline) of the same compound?
Answer: 0 of 6

Question: What about the survivor count [5] of the same compound?
Answer: 0 of 6

Question: `C1CN(SSN2CCOCC2)CCO1` was tested. Which survivor count [1] did it give?
Answer: 1 of 3

Question: What about the survivor count [3] of the same compound?
Answer: 0 of 3
